# Source: patent US8329392B2, “Determination of testosterone by mass spectrometry” (Quest Diagnostics Investments Incorporated, priority 2003, dated 2012)
# Assay: Assay specificity: interference of other steroids in the HTLC/MS/MS testosterone assay
# Conditions: Dose = 10 μg/dL
row,Structure (SMILES),% Interference [%]
1,C[C@H](O)[C@@]1(O)CC[C@H]2[C@@H]3CC[C@@H]4C[C@H](O)CC[C@]4(C)[C@H]3C(=O)C[C@@]21C [PT-ONE],0.5
2,C[C@]12CC[C@@H](O)C[C@H]1CC[C@@H]1[C@@H]2[C@@H](O)C[C@@]2(C)[C@H]1CC[C@]2(O)C(=O)CO [THF],0.05
3,C[C@]12CC[C@@H](O)C[C@H]1CC[C@@H]1[C@@H]2CC[C@]2(C)C(=O)CC[C@@H]12 [ETIO],0.05
4,C[C@]12CCC(=O)C=C1CC[C@@H]1[C@@H]2CC[C@]2(C)C(=O)CC[C@@H]12 [AD],0.05
5,C[C@]12CC[C@@H](O)C[C@H]1CC[C@@H]1[C@@H]2C(=O)C[C@@]2(C)[C@H]1CC[C@]2(O)C(=O)CO [THE],0.05
6,C[C@]12CC[C@H](O)CC1=CC[C@@H]1[C@@H]2CC[C@]2(C)C(=O)CC[C@@H]12 [DHA],0.05
7,C[C@]12CC[C@@H](O)C[C@H]1CC[C@@H]1[C@@H]2[C@@H](O)C[C@@]2(C)[C@H]1CC[C@]2(O)[C@@H](O)CO [α-CORTOL],0.05
8,C[C@H](O)[C@@]1(O)CC[C@H]2[C@@H]3CC[C@@H]4C[C@H](O)CC[C@]4(C)[C@H]3CC[C@@]21C [PT],0.05
9,CC(=O)[C@@]1(O)CC[C@H]2[C@@H]3CCC4=CC(=O)CC[C@]4(C)[C@H]3CC[C@@]21C [17-HP],0.05
10,C[C@]12CCC(=O)C=C1CC[C@@H]1[C@@H]2C(=O)C[C@@]2(C)[C@H]1CC[C@]2(O)[C@H](O)CO [20β-DHE],0.05
11,C[C@]12CC[C@@H](O)C[C@H]1CC[C@@H]1[C@@H]2CC[C@]2(C)[C@@H](C(=O)CO)CC[C@@H]12 [THDOC],0.05
12,C[C@H](O)[C@H]1CC[C@H]2[C@@H]3CC[C@@H]4C[C@H](O)CC[C@]4(C)[C@H]3CC[C@]12C [PD],0.05
13,C[C@]12CC[C@@H]3c4ccc(O)cc4CC[C@H]3[C@@H]1C[C@@H](O)[C@@H]2O [ESTRIOL],0.05
14,C[C@]12CC[C@@H](O)C[C@@H]1CC[C@@H]1[C@@H]2[C@@H](O)C[C@@]2(C)[C@H]1CC[C@]2(O)C(=O)CO [5α-THF],0.05
15,C[C@]12CC[C@@H](O)C[C@H]1CC[C@@H]1[C@@H]2[C@@H](O)C[C@@]2(C)[C@H]1CC[C@]2(O)[C@H](O)CO [B-CORTOL],0.05
16,C[C@]12CCC(=O)C=C1CC[C@@H]1[C@@H]2[C@@H](O)C[C@@]2(C)[C@H]1CC[C@]2(O)C(=O)CO [CORTISOL],0.05
17,C[C@]12CCC(=O)C=C1CC[C@@H]1[C@@H]2[C@@H](O)C[C@@]2(C)[C@H]1CC[C@]2(O)[C@@H](O)CO [20α-DHF],0.05
18,C[C@]12CC[C@@H](O)C[C@@H]1CC[C@@H]1[C@@H]2[C@@H](O)C[C@]2(C)[C@@H](C(=O)CO)CC[C@@H]12 [5α-THB],0.05
19,C[C@]12CC[C@@H](O)C[C@H]1CC[C@H]1[C@@H]3CC[C@H](C(=O)CO)[C@@]3(C)CC(=O)[C@@H]12 [THA],0.05
20,CC12CC(=O)C3C(CCC4CC(O)CCC43C)C1CCC2C(=O)CO (stereo not drawn) [5α-THA],0.05
21,C[C@]12CC[C@@H](O)C[C@H]1CC[C@@H]1[C@@H]2[C@@H](O)C[C@]2(C)[C@@H](C(=O)CO)CC[C@@H]12 [THB],0.05
22,C[C@]12CC[C@@H](O)C[C@H]1CC[C@@H]1[C@@H]2CC[C@@]2(C)[C@H]1CC[C@]2(O)C(=O)CO [THS],0.05
23,C[C@]12CC[C@@H](O)C[C@@H]1CC[C@@H]1[C@@H]2CC[C@]2(C)C(=O)CC[C@@H]12 [ANDRO],0.05
24,C[C@]12CC[C@@H](O)C[C@H]1CC[C@@H]1[C@@H]2C(=O)C[C@@]2(C)[C@H]1CC[C@]2(O)[C@@H](O)CO [A-CORTOLONE],0.05
25,C[C@]12CCC(=O)C=C1CC[C@@H]1[C@@H]2[C@@H](O)C[C@@]2(C)[C@H]1CC[C@]2(O)[C@H](O)CO [20β-DHF],0.05

# Same assay, conditions: Dose = 10 μg/dL; apparent testosterone observed
row,Structure (SMILES),Observed [ng/dL]
1,C[C@H](O)[C@@]1(O)CC[C@H]2[C@@H]3CC[C@@H]4C[C@H](O)CC[C@]4(C)[C@H]3C(=O)C[C@@]21C [PT-ONE],50.0
